# Experimental data reported in PubChem BioAssay AID493014 (National Center for Advancing Translational Sciences (NCATS), 2011).
# The list shows a part of the results. Shown are side measurements of this screen, not its main read-out; they come without a call. The list favours compounds with an active or inconclusive main result. The note in brackets gives the kind of curve behind each potency; many fits are weak.
# Assay: qHTS Assay to Find Inhibitors of Chronic Active B-Cell Receptor Signaling
# Conditions: ABC-DLBCL IkBa-CBG/CBR reporter, luminescence ratio (green luciferase fused to IkBa over red control in TMD8 lymphoma cells), 4 h
# In short: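 Concentration-response series (up to 46 uM) were applied to TMD8 dual-reporter cells for 4 h at 37C with doxycycline. Green/red ratio, after filter-overlap correction, defined %Activity; red signal alone was normalised to basal cells and zero luminescence.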
# [1] = measured here: CBR red luminescence, cell number
# [2] = measured here: IkBa-CBG green luminescence
Compound,AC50 [1],AC50 [2]
O=C(Nc1nnc(C2CC2)s1)c1cncc(Br)c1,"11.6 µM [falling, partial curve]",–
CC(C)(C)c1ccc(Cn2nnc3c(=O)[nH]c(C4CCCN(C(=O)c5cccs5)C4)nc32)cc1 (stereo not drawn),"35.5 µM [falling, single point]",–
Cc1[nH]nc2c1C(C(C)c1ccccc1)C(C#N)=C(N)O2 (stereo not drawn),"35.5 µM [falling, single point]",–
COc1ccc(C2/C=C\CN(S(=O)(=O)c3ccc(C)cc3)CC(=O)N2Cc2cccc(F)c2)cc1 (stereo not drawn),"4.61 µM [rising, full curve]",–
COc1cc2c(cc1OC)C(=O)N1[C@H]3c4cc(Cl)ccc4OC[C@@H]3[C@H](c3ccccc3)[C@]1(C)C(=O)N2,"29.1 µM [falling, single point]",–
COc1ccc2c3c(cccc13)C(=O)N(O)C2=O,"20.6 µM [falling, single point]",–
COc1cc2c(cc1OC)CN(C(=O)Nc1ccccc1Cl)CC2,"2.82 µM [falling, partial curve, poor fit]",–
NS(=O)(=O)c1ccc(NN=C2CCN(Cc3ccccc3)CC2)c([N+](=O)[O-])c1,"20 µM [falling, partial curve, poor fit]",–
CC(NC(=O)c1ccccc1NC(=O)CN1CCc2ccccc2C1)c1ccccc1 (stereo not drawn),"14.1 µM [falling, single point]",–
COc1cccc(C(=O)NCCS(=O)(=O)NCCc2ccc(OC)c(OC)c2)c1,"29.1 µM [falling, single point]",–
O=C(CSc1nnc(-c2ccc(O)cc2)o1)c1ccc(Br)cc1,"7.08 µM [falling, partial curve, poor fit]",–
CC1Cc2ccccc2N1c1ncnc2c1nnn2Cc1ccccc1 (stereo not drawn),"6.31 µM [falling, partial curve, poor fit]",–
COCCSc1ccccc1C(=O)Nc1cc(C)ccn1,"9.2 µM [rising, partial curve, poor fit]",–
Cc1cc(NC(=O)CN2C(=O)NC(C)(c3ccccc3)C2=O)no1 (stereo not drawn),"6.51 µM [rising, single point]",–
CN(CCCNC(=O)CSc1cc(=O)n(C)c2cc(Cl)ccc12)Cc1ccccc1,"35.5 µM [falling, single point]",–
COc1cccc(/C=N/Nc2nc3ccccc3n3cnnc23)c1,"9.2 µM [falling, partial curve, poor fit]",–
Cn1nc(C(C)(C)C)c([N+](=O)[O-])c1C(N)=O,"11.2 µM [rising, partial curve]",–
CC(C)(Oc1ccc(Cl)cc1)C(=O)N1CCN(c2ccccn2)CC1,"29.1 µM [falling, single point]","20.6 µM [rising, single point]"
Cn1nc(C(C)(C)C)cc1NC(=O)Nc1ccc(F)cc1F,"2 µM [falling, partial curve]",–
FC(F)(F)c1cc(NCc2cccs2)n2ncnc2n1,"25.9 µM [rising, single point]","0.206 µM [rising, full curve, poor fit]"

Compound,AC50 [1],AC50 [2]
CC1CN(Cc2csc(-c3ccc(Cl)cc3)n2)CC(C)O1 (stereo not drawn),"4.47 µM [rising, partial curve]",–
O=C(CSc1cnc2ccccc2n1)NC1CCCC1,"5.17 µM [falling, partial curve, poor fit]",–
O=C(NCc1ccccc1Cl)C1CCC(CNc2c(N3CCOCC3)c(=O)c2=O)CC1 (stereo not drawn),"12.6 µM [rising, single point]",–
Cc1cc(-c2ccccc2)nc2cc(C(=O)NCc3ccco3)nn12,"35.5 µM [falling, single point]",–
COc1cc(CCC(=O)OCC(=O)Nc2nc(C)c(Cl)cc2Cl)cc(OC)c1OC,"29.1 µM [rising, partial curve, poor fit]",–
CCn1c(SCC(=O)NCc2ccc3c(c2)OCO3)nc2c(c1=O)SCC2,"12.6 µM [falling, single point]",–
COC(=O)c1ccc(NC(=O)CC(=O)Nc2ccc(C(=O)OC)cc2)cc1,"14.1 µM [rising, partial curve, poor fit]",–
CCOC(=O)c1c(N)sc(-c2ccccc2)c1C,"8.2 µM [rising, partial curve]","29.1 µM [falling, single point]"
CCC(=O)NCCc1nc2cc(NC(=O)c3ccco3)ccc2n1C,"4.47 µM [falling, full curve]",–
Brc1ccc(CN2CCN(Cc3c[nH]c4ccccc34)CC2)cc1,"2.51 µM [rising, single point]",–
O=[N+]([O-])c1ccc(/C=N/NC(=S)Nc2ccc(Cl)cc2Cl)s1,"3.16 µM [rising, full curve, poor fit]",–
COCCCNCCOCCOc1ccc(Cl)cc1C(C)(C)C,"14.6 µM [falling, partial curve, poor fit]",–
COc1ccc(Cl)cc1C(=O)NNC(=S)NC1CCCC1,–,"12.6 µM [falling, partial curve, poor fit]"
COC(=O)c1cc(NCc2c(F)cccc2Cl)ccc1N1CCOCC1,"7.08 µM [falling, full curve]",–
O=C(C=C1CCN(c2ncc(C(F)(F)F)cc2Cl)CC1)NNC(=O)Nc1ccc(Cl)cc1,"3.98 µM [rising, partial curve, poor fit]",–
COc1ccc(OC)c(-c2cn(S(=O)(=O)c3ccccc3)nc2N)c1,"1.84 µM [falling, partial curve, poor fit]",–
CCC(C)(C(=O)NC1CCCC1)N(C(=O)c1cnccn1)c1c(C)n(C)n(-c2ccccc2)c1=O (stereo not drawn),"6.51 µM [rising, single point]",–
CC(=O)c1ccc(N2CCN(C(=O)C(=O)c3c(C)[nH]c4ccccc34)CC2)cc1,"0.631 µM [rising, full curve, poor fit]",–
CCOC(=O)c1cnn(-c2ccccc2)c1NC(=O)c1cccs1,"8.91 µM [rising, partial curve]",–
CC(C)C(=O)Nc1ccc(S(=O)(=O)Nc2nccc(/C=C/c3ccccc3)n2)cc1,–,"18.4 µM [falling, single point]"
